According to patent US8101550B2, “Anthranilic acid diamide derivative with hetero-aromatic and hetero-cyclic substituents” (Bayer Cropscience AG, priority 2006, dated 2012):
Some results were stated once for a whole list of compounds, not compound by compound. For at least one compound, name, drawing or mass did not settle the structure.

Columns and labels:
Format in all cases: in vivo
[1] = tested on: larvae of the mustard beetle (Phaedon cochleariae); assay: Phaedon test (spray treatment); conditions: application rate 100 g/ba; Chinese cabbage leaf discs sprayed
[2] = tested on: larvae of the armyworm (Spodoptera frugiperda); assay: Spodoptera frugiperda test (spray treatment); conditions: 100 g/ha; maize leaf discs sprayed
[3] = tested on: green peach aphid (Myzus persicae); assay: Myzus test (spray treatment); conditions: 100 g/ha; infested Chinese cabbage leaf discs sprayed

CNC(=O)c1cc(C#N)cc(C)c1NC(=O)c1cc(Cn2cnc(C(F)(F)C(F)(F)F)n2)nn1-c1ncccc1Cl [I-1-333]
≥ 80%: effect in % (kill of beetle larvae) [1] | effect in % (kill of caterpillars) [2] | effect in % (kill of aphids) [3]

Cc1cc(Cl)cc(C(=O)NC(C)(C)CS(C)(=O)=O)c1NC(=O)c1cc(Cn2cc(Br)c(C(F)(F)F)n2)nn1-c1ncccc1Cl [I-1-145]
≥ 80%: effect in % (kill of beetle larvae) [1] | effect in % (kill of caterpillars) [2] | effect in % (kill of aphids) [3]

Cc1cc(C#N)cc(C(N)=O)c1NC(=O)c1cc(Cn2cnc(C(F)(F)C(F)(F)F)n2)nn1-c1ncccc1Cl [I-1-339]
≥ 80%: effect in % (kill of beetle larvae) [1] | effect in % (kill of caterpillars) [2] | effect in % (kill of aphids) [3]

CNC(=O)c1cc(Cl)cc(C)c1NC(=O)c1cc(Cn2nnnc2-c2ccc(C(F)(F)F)cc2)nn1-c1ncccc1Cl [I-1-163]
≥ 80%: effect in % (kill of beetle larvae) [1] | effect in % (kill of caterpillars) [2] | effect in % (kill of aphids) [3]

CNC(=O)c1cc(Br)cc(C)c1NC(=O)c1cc(Cn2cc(Br)c(C(F)(F)F)n2)nn1-c1ncccc1Cl [I-1-68]
≥ 80%: effect in % (kill of beetle larvae) [1] | effect in % (kill of caterpillars) [2] | effect in % (kill of aphids) [3]

Cc1cc(C#N)cc(C(=O)NCC#N)c1NC(=O)c1cc(Cn2ccc(C(F)(F)F)n2)nn1-c1ncccc1Cl [I-1-185]
≥ 80%: effect in % (kill of beetle larvae) [1] | effect in % (kill of caterpillars) [2] | effect in % (kill of aphids) [3]

Cc1cc(C#N)cc(C(=O)NC(C)C)c1NC(=O)c1cc(Cn2cnc(C(F)(F)C(F)(F)F)n2)nn1-c1ncccc1Cl [I-1-354]
≥ 80%: effect in % (kill of beetle larvae) [1] | effect in % (kill of caterpillars) [2] | effect in % (kill of aphids) [3]

CNC(=O)c1cc(Cl)cc(Cl)c1NC(=O)c1cc(Cn2cnc(C(F)(F)C(F)(F)F)n2)nn1-c1ncccc1Cl [I-1-326]
≥ 80%: effect in % (kill of beetle larvae) [1] | effect in % (kill of caterpillars) [2] | effect in % (kill of aphids) [3]

Cc1cc(C#N)cc(C(=O)NC2CC2)c1NC(=O)c1cc(Cn2cnc(C(F)(F)C(F)(F)F)n2)nn1-c1ncccc1Cl [I-1-338]
≥ 80%: effect in % (kill of beetle larvae) [1] | effect in % (kill of caterpillars) [2] | effect in % (kill of aphids) [3]

Cc1cc(Br)cc(C(N)=O)c1NC(=O)c1cc(Cn2ccc(C(F)(F)F)n2)nn1-c1ncccc1Cl [I-1-83]
≥ 80%: effect in % (kill of beetle larvae) [1] | effect in % (kill of caterpillars) [2] | effect in % (kill of aphids) [3]

Cc1cccc(C(=O)NC(C)C[S+](C)[O-])c1NC(=O)c1cc(Cn2nc(C(F)(F)F)nc2C(F)(F)F)nn1-c1ncccc1Cl (stereo not drawn) [I-1-92]
≥ 80%: effect in % (kill of beetle larvae) [1] | effect in % (kill of caterpillars) [2] | effect in % (kill of aphids) [3]

Cc1cc(C#N)cc(C(N)=O)c1NC(=O)c1cc(Cn2nc(C(F)(F)F)nc2C(F)(F)F)nn1-c1ncccc1Cl [I-1-179]
≥ 80%: effect in % (kill of beetle larvae) [1] | effect in % (kill of caterpillars) [2] | effect in % (kill of aphids) [3]

Cc1cc(Br)cc(C(N)=O)c1NC(=O)c1cc(Cn2cc(Cl)c(C(F)(F)C(F)(F)F)n2)nn1-c1ncccc1Cl [I-1-74]
≥ 80%: effect in % (kill of beetle larvae) [1] | effect in % (kill of caterpillars) [2] | effect in % (kill of aphids) [3]

CSCC(C)(C)NC(=O)c1cc(Cl)cc(C)c1NC(=O)c1cc(Cn2cc(Br)c(C(F)(F)F)n2)nn1-c1ncccc1Cl [I-1-131]
≥ 80%: effect in % (kill of beetle larvae) [1] | effect in % (kill of caterpillars) [2] | effect in % (kill of aphids) [3]

CSC[C@H](C)NC(=O)c1cc(Cl)cc(C)c1NC(=O)c1cc(Cn2nnc(-c3ccc(Br)cc3)n2)nn1-c1ncccc1Cl [I-1-152]
≥ 80%: effect in % (kill of beetle larvae) [1] | effect in % (kill of caterpillars) [2] | effect in % (kill of aphids) [3]

CNC(=O)c1cc(Cl)cc(C)c1NC(=O)c1cc(Cn2cc(C(F)(F)C(F)(F)F)cn2)nn1-c1ncccc1Cl [I-1-64]
≥ 80%: effect in % (kill of beetle larvae) [1] | effect in % (kill of caterpillars) [2] | effect in % (kill of aphids) [3]

CNC(=O)c1cc(Cl)cc(C)c1NC(=O)c1cc(Cn2nnc(-c3ccc(Br)cc3)n2)nn1-c1ncccc1Cl [I-1-150]
≥ 80%: effect in % (kill of beetle larvae) [1] | effect in % (kill of caterpillars) [2] | effect in % (kill of aphids) [3]

CSC[C@H](C)NC(=O)c1cc(Cl)cc(C)c1NC(=O)c1cc(Cn2nc(C(F)(F)F)nc2C(F)(F)F)nn1-c1ncccc1Cl [I-1-75]
≥ 80%: effect in % (kill of beetle larvae) [1] | effect in % (kill of caterpillars) [2] | effect in % (kill of aphids) [3]

CSC[C@H](C)NC(=O)c1cc(Br)cc(C)c1NC(=O)c1cc(Cn2nc(C(F)(F)F)nc2C(F)(F)F)nn1-c1ncccc1Cl [I-1-135]
≥ 80%: effect in % (kill of beetle larvae) [1] | effect in % (kill of caterpillars) [2] | effect in % (kill of aphids) [3]

Cc1cc(Br)cc(C(=O)NC(C)C[S+](C)[O-])c1NC(=O)c1cc(Cn2cc(Br)c(C(F)(F)F)n2)nn1-c1ncccc1Cl (stereo not drawn) [I-1-113]
≥ 80%: effect in % (kill of beetle larvae) [1] | effect in % (kill of caterpillars) [2] | effect in % (kill of aphids) [3]

Cc1cc(Br)cc(C(=O)NC(C)CS(C)(=O)=O)c1NC(=O)c1cc(Cn2cc(Br)c(C(F)(F)F)n2)nn1-c1ncccc1Cl (stereo not drawn) [I-1-101]
≥ 80%: effect in % (kill of beetle larvae) [1] | effect in % (kill of caterpillars) [2] | effect in % (kill of aphids) [3]

Cc1cc(Br)cc(C(=O)NC(C)C)c1NC(=O)c1cc(Cn2ccc(C(F)(F)F)n2)nn1-c1ncccc1Cl [I-1-81]
≥ 80%: effect in % (kill of beetle larvae) [1] | effect in % (kill of caterpillars) [2] | effect in % (kill of aphids) [3]

CNC(=O)c1cc(Cl)cc(C)c1NC(=O)c1cc(Cn2cnc(C(F)(F)C(F)(F)F)n2)nn1-c1ncccc1Cl [I-1-329]
≥ 80%: effect in % (kill of beetle larvae) [1] | effect in % (kill of caterpillars) [2] | effect in % (kill of aphids) [3]

Cc1cc(C#N)cc(C(=O)NC(C)C)c1NC(=O)c1cc(Cn2nc(C(F)(F)F)nc2C(F)(F)F)nn1-c1ncccc1Cl [I-1-177]
≥ 80%: effect in % (kill of beetle larvae) [1] | effect in % (kill of caterpillars) [2] | effect in % (kill of aphids) [3]

Cc1cc(C#N)cc(C(=O)NC2CC2)c1NC(=O)c1cc(Cn2nc(C(F)(F)F)nc2C(F)(F)F)nn1-c1ncccc1Cl [I-1-178]
≥ 80%: effect in % (kill of beetle larvae) [1] | effect in % (kill of caterpillars) [2] | effect in % (kill of aphids) [3]

CNC(=O)c1cc(Cl)cc(Cl)c1NC(=O)c1cc(Cn2cc(Cl)c(C(F)(F)C(F)(F)F)n2)nn1-c1ncccc1Cl [I-1-308]
≥ 80%: effect in % (kill of beetle larvae) [1] | effect in % (kill of caterpillars) [2] | effect in % (kill of aphids) [3]

NC(=O)c1cc(Cl)cc(Cl)c1NC(=O)c1cc(Cn2cnc(C(F)(F)C(F)(F)F)n2)nn1-c1ncccc1Cl [I-1-336]
≥ 80%: effect in % (kill of beetle larvae) [1] | effect in % (kill of caterpillars) [2] | effect in % (kill of aphids) [3]
